According to paper PMC3521698:
No constants are given. Whether binding was seen depends on the method and setting. In cells and extracts the contact can be indirect. Some results given as binding are weak or reduced against the parent protein; the word gives no strength.

The chains behind the UniProt entries cited, without tags or fusion partners.
UniProt Q04206: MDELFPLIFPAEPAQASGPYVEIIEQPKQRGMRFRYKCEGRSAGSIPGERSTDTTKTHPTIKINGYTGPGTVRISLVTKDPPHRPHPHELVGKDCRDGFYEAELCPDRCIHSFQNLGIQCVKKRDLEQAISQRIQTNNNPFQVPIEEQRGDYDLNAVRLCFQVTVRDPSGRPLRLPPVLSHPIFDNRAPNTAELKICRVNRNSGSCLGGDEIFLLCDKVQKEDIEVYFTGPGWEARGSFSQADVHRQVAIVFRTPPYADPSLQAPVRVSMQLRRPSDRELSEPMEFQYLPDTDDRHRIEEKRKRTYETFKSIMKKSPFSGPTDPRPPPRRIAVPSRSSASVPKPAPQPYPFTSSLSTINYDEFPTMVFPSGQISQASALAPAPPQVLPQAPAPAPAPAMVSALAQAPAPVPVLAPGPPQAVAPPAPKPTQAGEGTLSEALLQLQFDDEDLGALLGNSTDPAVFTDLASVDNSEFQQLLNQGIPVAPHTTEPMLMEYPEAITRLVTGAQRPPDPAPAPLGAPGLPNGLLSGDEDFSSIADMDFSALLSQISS

Experiments:
[1] = molecular target: FLAG-tagged RelA (human), Q04206; experiment: co-IP; settings: remark: other sources report otherwise
FLAG-tagged RelA (human) = FLAG-tagged RelA (human) (UniProt Q04206); experiment: co-IP

| Binder | binding [1] | binding (FLAG-tagged RelA (human)) |
| --- | --- | --- |
| RelB, Q01201 1-579 (protein) MLRSGPASGPSVPTGRAMPSRRVARPPAAPELGALGSPDLSSLSLAVSRSTDELEIIDEYIKENGFGLDGGQPGPGEGLPRLVSRGAASLSTVTLGPVAPPATPPPWGCPLGRLVSPAPGPGPQPHLVITEQPKQRGMRFRYECEGRSAGSILGESSTEASKTLPAIELRDCGGLREVEVTACLVWKDWPHRVHPHSLVGKDCTDGICRVRLRPHVSPRHSFNNLGIQCVRKKEIEAAIERKIQLGIDPYNAGSLKNHQEVDMNVVRICFQASYRDQQGQMRRMDPVLSEPVYDKKSTNTSELRICRINKESGPCTGGEELYLLCDKVQKEDISVVFSRASWEGRADFSQADVHRQIAIVFKTPPYEDLEIVEPVTVNVFLQRLTDGVCSEPLPFTYLPRDHDSYGVDKKRKRGMPDVLGELNSSDPHGIESKRRKKKPAILDHFLPNHGSGPFLPPSALLPDPDFFSGTVSLPGLEPPGGPDLLDDGFAYDPTAPTLFTMLDLLPPAPPHASAVVCSGGAGAVVGETPGPEPLTLDSYQAPGPGDGGTASLVGSNMFPNHYREAAFGGGLLSPGPEAT | binds |  |
| c-Rel (protein, UniProt Q04864 1-619) MASGAYNPYIEIIEQPRQRGMRFRYKCEGRSAGSIPGEHSTDNNRTYPSIQIMNYYGKGKVRITLVTKNDPYKPHPHDLVGKDCRDGYYEAEFGQERRPLFFQNLGIRCVKKKEVKEAIITRIKAGINPFNVPEKQLNDIEDCDLNVVRLCFQVFLPDEHGNLTTALPPVVSNPIYDNRAPNTAELRICRVNKNCGSVRGGDEIFLLCDKVQKDDIEVRFVLNDWEAKGIFSQADVHRQVAIVFKTPPYCKAITEPVTVKMQLRRPSDQEVSESMDFRYLPDEKDTYGNKAKKQKTTLLFQKLCQDHVETGFRHVDQDGLELLTSGDPPTLASQSAGITVNFPERPRPGLLGSIGEGRYFKKEPNLFSHDAVVREMPTGVSSQAESYYPSPGPISSGLSHHASMAPLPSSSWSSVAHPTPRSGNTNPLSSFSTRTLPSNSQGIPPFLRIPVGNDLNASNACIYNNADDIVGMEASSMPSADLYGISDPNMLSNCSVNMMTTSSDSMGETDNPRLLSMNLENPSCNSVLDPRDLRQLHQMSSSSMSAGANSNTTVFVSQSDAFEGSDFSCADNSMINESGPSNSTNPNSHGFVQDSQYSGIGSMQNEQLSDSFPYEFFQV |  | binds |
| IκBα (endogenous), P25963 1-317 (protein) MFQAAERPQEWAMEGPRDGLKKERLLDDRHDSGLDSMKDEEYEQMVKELQEIRLEPQEVPRGSEPWKQQLTEDGDSFLHLAIIHEEKALTMEVIRQVKGDLAFLNFQNNLQQTPLHLAVITNQPEIAEALLGAGCDPELRDFRGNTPLHLACEQGCLASVGVLTQSCTTPHLHSILKATNYNGHTCLHLASIHGYLGIVELLVSLGADVNAQEPCNGRTALHLAVDLQNPDLVSLLLKCGADVNRVTYQGYSPYQLTWGRPSTRIQQQLGQLTLENLQMLPESEDEESYDTESEFTEFTEDELPYDDCVFGGQRLTL | binds |  |

Further lines, results first:

| binding [1] | binding (FLAG-tagged RelA (human)) | Binder |
| --- | --- | --- |
| binds |  | p100, Q00653-1 1-900 (protein) MESCYNPGLDGIIEYDDFKLNSSIVEPKEPAPETADGPYLVIVEQPKQRGFRFRYGCEGPSHGGLPGASSEKGRKTYPTVKICNYEGPAKIEVDLVTHSDPPRAHAHSLVGKQCSELGICAVSVGPKDMTAQFNNLGVLHVTKKNMMGTMIQKLQRQRLRSRPQGLTEAEQRELEQEAKELKKVMDLSIVRLRFSAFLRASDGSFSLPLKPVISQPIHDSKSPGASNLKISRMDKTAGSVRGGDEVYLLCDKVQKDDIEVRFYEDDENGWQAFGDFSPTDVHKQYAIVFRTPPYHKMKIERPVTVFLQLKRKRGGDVSDSKQFTYYPLVEDKEEVQRKRRKALPTFSQPFGGGSHMGGGSGGAAGGYGGAGGGGSLGFFPSSLAYSPYQSGAGPMGCYPGGGGGAQMAATVPSRDSGEEAAEPSAPSRTPQCEPQAPEMLQRAREYNARLFGLAQRSARALLDYGVTADARALLAGQRHLLTAQDENGDTPLHLAIIHGQTSVIEQIVYVIHHAQDLGVVNLTNHLHQTPLHLAVITGQTSVVSFLLRVGADPALLDRHGDSAMHLALRAGAGAPELLRALLQSGAPAVPQLLHMPDFEGLYPVHLAVRARSPECLDLLVDSGAEVEATERQGGRTALHLATEMEELGLVTHLVTKLRANVNARTFAGNTPLHLAAGLGYPTLTRLLLKAGADIHAENEEPLCPLPSPPTSDSDSDSEGPEKDTRSSFRGHTPLDLTCSTKVKTLLLNAAQNTMEPPLTPPSPAGPGLSLGDTALQNLEQLLDGPEAQGSWAELAERLGLRSLVDTYRQTTSPSGSLLRSYELAGGDLAGLLEALSDMGLEEGVRLLRGPETRDKLPSTAEVKEDSAYGSQSVEQEAEKLGPPPEPPGGLCHGHPQPQVH |
|  | binds | p52 (protein, UniProt Q00653 1-454) MESCYNPGLDGIIEYDDFKLNSSIVEPKEPAPETADGPYLVIVEQPKQRGFRFRYGCEGPSHGGLPGASSEKGRKTYPTVKICNYEGPAKIEVDLVTHSDPPRAHAHSLVGKQCSELGICAVSVGPKDMTAQFNNLGVLHVTKKNMMGTMIQKLQRQRLRSRPQGLTEAEQRELEQEAKELKKVMDLSIVRLRFSAFLRASDGSFSLPLKPVISQPIHDSKSPGASNLKISRMDKTAGSVRGGDEVYLLCDKVQKDDIEVRFYEDDENGWQAFGDFSPTDVHKQYAIVFRTPPYHKMKIERPVTVFLQLKRKRGGDVSDSKQFTYYPLVEDKEEVQRKRRKALPTFSQPFGGGSHMGGGSGGAAGGYGGAGGGGSLGFFPSSLAYSPYQSGAGPMGCYPGGGGGAQMAATVPSRDSGEEAAEPSAPSRTPQCEPQAPEMLQRAREYNARLFGLA |
